From publication PMC6933384 come the findings set out here.

This test deals with integrin αVβ5 receptor (mouse (endogenous in gut tissue)). The test can be described thus: co-IP; mouse gut tissue after gut IR (irisin 250 μg/kg and cilengitide trifluoroacetate 20 mg/kg given iv after reperfusion); immunoprecipitation with mouse anti-integrin alpha V/beta 5 antibody (sc-81632) and Protein A/G PLUS-Agarose; Western blot for irisin, integrin alpha V and integrin beta 5. For orientation: A western blot detects proteins with antibodies after separation by electrophoresis.

No constants are given. Whether binding was seen depends on the method and setting. Binding seen in cells or lysates may run through a third protein. Binding calls can cover weak binding; strength is not graded here.

B1: irisin (ligand, UniProt Q8K4Z2 1-171)
chain: MQAARGGAGRPGREGRGLERECERSPGPGVAMPPGPCAWPPRAALRLWLGCVCFALVQADSPSAPVNVTVRHLKANSAVVSWDVLEDEVVIGFAISQQKKDVRMLRFIQEVNTTTRSCALWDLEEDTEYIVHVQAISIQGQSPASEPVLFKTPREAEKMASKNKDEVTMKE
With B1, the binding result is on record as “binds”.
